Measured values from PubChem BioAssay AID2549 (National Center for Advancing Translational Sciences (NCATS), 2010).
The campaign covered roughly 240,000 compounds. About 1,300 (0.54%) were called active. Inconclusive means that the source gave no clear call. Such entries were picked first, then a sample of the others. Calls come from the whole dose curve; as a rule, active = well fitted inhibition curve with a large enough effect; inconclusive = small, poorly fitted or top-dose-only effect; inactive = flat fitted curve, though single readings scatter. Potencies beside an inconclusive call are fits to weak or partial responses and may not hold up. Where a SMILES comes first, the peptide text is derived from it. Bridges are numbered along the chain shown (N, C = ends). [ ]: non-standard residue; d: D form. The star is where a group is joined. Octanoyl(6-Me) = CCC(C)CCCCC(=O)*; Dab = NCC[CH](N)C(=O)O
Note: nearly all actives have a fitted effect of over 30% in size.
Potency is the fitted concentration of half-maximal effect.
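Throughout, for activity, negative = inhibition: plate controls were vehicle for no effect and no enzyme for full effect.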

Amino acid sequences for entries named in this document (tags omitted). A change or cut given only in a name is not applied to a line headed by its entry.
UniProt P46063: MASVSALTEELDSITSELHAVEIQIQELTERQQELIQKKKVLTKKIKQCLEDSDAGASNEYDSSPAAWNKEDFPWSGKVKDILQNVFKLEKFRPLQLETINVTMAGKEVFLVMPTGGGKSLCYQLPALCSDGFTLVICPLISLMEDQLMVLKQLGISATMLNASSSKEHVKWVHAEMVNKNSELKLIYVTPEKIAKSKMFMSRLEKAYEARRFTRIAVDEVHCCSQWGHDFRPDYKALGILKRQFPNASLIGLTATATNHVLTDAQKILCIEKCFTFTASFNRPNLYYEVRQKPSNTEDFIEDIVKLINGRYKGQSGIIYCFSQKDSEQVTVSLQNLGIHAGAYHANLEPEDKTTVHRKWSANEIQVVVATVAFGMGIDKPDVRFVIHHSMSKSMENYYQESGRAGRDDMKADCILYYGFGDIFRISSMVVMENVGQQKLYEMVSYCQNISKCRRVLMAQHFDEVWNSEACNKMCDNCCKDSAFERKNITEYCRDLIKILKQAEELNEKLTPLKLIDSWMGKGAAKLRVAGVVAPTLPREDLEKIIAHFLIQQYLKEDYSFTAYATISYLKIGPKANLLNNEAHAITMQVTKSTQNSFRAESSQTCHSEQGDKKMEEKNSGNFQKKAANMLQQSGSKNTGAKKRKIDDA

The molecules below were run against ATP-dependent DNA helicase Q1 (Homo sapiens) (UniProt P46063) (assay: qHTS Assay for Inhibitors of RecQ-Like Dna Helicase 1 (RECQ1)). Conditions: RECQ1 DNA unwinding, red fluorescence kinetic read; activity, negative = inhibition: at 57.3 µM (top of the series); series mostly up to 57.3 µM.
How it was run: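 RECQ1T1 50 nM; forked duplex (20 bp + 30-nt ss tails) 200 nM, ATP 2 mM final; pH 8.0, 2 mM MgCl2, 2.5 ug/ml poly(dI-dC); 15 min compound preincubation; discontinuous kinetic read over 2 h at RT.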
`COc1ccc(/C=C(/C(=O)c2ccc(Cl)cc2Cl)n2cncn2)cc1` was tested, and the “activity, negative = inhibition” value was inactive: -1.4%. With `CN(C)c1cncc(C(=O)O)c1` the “activity, negative = inhibition” value was inactive: -17.6%. `O=[N+]([O-])c1cc(CN2CCCC2)c2cccnc2c1O` was tested, and the Potency was inconclusive: 39.8 µM [inhibitor, single point]. For `O=C(COC(=O)C1=COCCO1)Nc1ccccc1Oc1ccccc1`, the Potency was inconclusive: 0.891 µM [inhibitor, full curve]. For `COC(CC(=O)NNC(=S)Nc1ccccc1)OC`, the Potency was active: 14.1 µM. `Cc1ccc2nc3c(cc2c1)c(NC(=O)c1ccco1)nn3CC(C)C` was tested, and the Potency was inconclusive: 0.158 µM [inhibitor, full curve, poor fit]. With `CCCCC1=CC2=C(c3ccco3)C(=O)C(C)(OC(=O)c3ccc(Cl)nc3)C(=O)C2=CO1` (stereo unspecified) the Potency was inconclusive: 22.4 µM [inhibitor, single point]. In the case of `CCCCNC(=O)Cn1cnc2sc(C(=O)OCC)c(C)c2c1=O`, the Potency is reported as inconclusive: 1.41 µM [inhibitor, full curve]. For `Cc1[nH][nH]c(=O)c1C(c1ccc(-c2cccc(C(=O)O)c2)o1)c1c(C)[nH][nH]c1=O`, the Potency was inconclusive: 39.8 µM [inhibitor, single point]. With `COc1ccc(S(=O)(=O)N(C)CC(=O)NC2CCCC2)cc1Cl` the “activity, negative = inhibition” value was inactive: 6.29%. `CC1CC=CC2C1C(=O)N(Cc1ccccc1)C2c1ccc2ccccc2c1Br` (stereo unspecified) was tested, and the “outcome” value was “inactive”. `CC[C@H]1C(c2ccc(F)cc2)=NN(c2ccccc2)[C@@H]1CO` was tested, and the “activity, negative = inhibition” value was inactive: -6.09% [at 81.1 µM]. For `N#C/C(=C\c1coc2ccc(O)cc2c1=O)C(=O)Nc1nc2ccccc2s1`, the Potency was inconclusive: 31.6 µM [inhibitor, single point]. `CCCN1CCC(=O)N(C(CSc2ccc(C)cc2)CC(C)C)CC1` (stereo unspecified) was tested, and the “activity, negative = inhibition” value was inactive: 11%. `Brc1ccc(-c2cn3nc4c(nc3n2)CCCC4)cc1` was tested, and the “outcome” value was “inactive”. With `CCCCCc1c2c(cc(O)c1C(=O)O)OC(=O)c1c(cc(OC)cc1C(=O)CCCC)O2` the Potency was inconclusive: 39.8 µM [inhibitor, single point]. In the case of `COc1ccc(C2=Nn3c(nnc3-c3ccccc3OC)SC2)cc1OC`, the Potency is reported as “inactive”. In the case of `CCc1nnc(NC(=O)CSc2nnc(-c3ccoc3C)n2-c2ccc(C)cc2)s1`, the Potency is reported as inconclusive: 1 µM [inhibitor, full curve]. In the case of `O=C1C2C(C(=O)N1/N=C/c1cc([N+](=O)[O-])c(O)cc1O)C1C=CC2C12CC2` (stereo unspecified), the Potency is reported as inconclusive: 39.8 µM [inhibitor, single point]. `O=c1[nH]c2cc3c(cc2cc1CN(Cc1cccs1)Cc1nnnn1Cc1ccco1)OCCO3` was tested, and the Potency was inconclusive: 35.5 µM [inhibitor, single point]. In the case of `O=C(NC(=S)NCc1ccc(F)cc1)c1ccccc1`, the Potency is reported as inconclusive: 12.6 µM [inhibitor, partial curve]. In the case of `COc1ccc(/C=C2\SC(=S)N(CC3CCCO3)C2=O)cc1` (stereo unspecified), the “activity, negative = inhibition” value is reported as inactive: -16.2%. For `CCCCNC(=S)Nc1ccc2cn[nH]c2c1`, the Potency was inconclusive: 0.398 µM [inhibitor, partial curve, poor fit]. With `Cc1cc2cc(CNC(=O)C(C)Oc3ccccc3)ccc2n1C` (stereo unspecified) the Potency was inconclusive: 7.94 µM [inhibitor, full curve]. In the case of `Cc1ccc(CSc2nnc(-c3cccnc3)o2)cc1`, the Potency is reported as inconclusive: 0.141 µM [inhibitor, partial curve, poor fit]. In the case of `CC(C)C(=O)Nc1ccc(N2CCN(c3ccc(F)cc3)CC2)cc1`, the Potency is reported as inconclusive: 0.0562 µM [inhibitor, full curve]. With `Cn1c(-c2ccccc2O)cc2ccccc21` the Potency was inconclusive: 31.6 µM [inhibitor, single point]. With `CCCCc1cc(=O)oc2cc(C)c(CN3CCCC3)c(O)c12` the Potency was active: 12.6 µM. In the case of `O=C(O)c1c2c(nc3ccc(Cl)cc13)CCC2`, the Potency is reported as active: 28.2 µM. In the case of `CCn1c(-c2ccccc2)csc1=Nc1ccc(S(=O)(=O)O)cc1`, the Potency is reported as inconclusive: 1 µM [inhibitor, full curve]. In the case of `CCOc1ccc(OCc2cccc(C(=O)N3CCCC3)c2)cc1`, the Potency is reported as inconclusive: 5.62 µM [inhibitor, full curve]. For `CCN(CC)c1ccc(N=Cc2ccc([N+](=O)[O-])o2)cc1`, the Potency was inconclusive: 35.5 µM [inhibitor, single point]. With `CCOC(=O)C1=NO[C@@]2(C=C(Br)C(=O)[C@H]3O[C@H]32)C1` the Potency was active: 28.2 µM. With `COc1ccccc1NC1C=CS(=O)(=O)C1` (stereo unspecified) the “activity, negative = inhibition” value was inactive: -10.5%. With `O=C(Nc1nnc(C2CC2)s1)C1Cc2ccccc2CN1S(=O)(=O)c1cccs1` (stereo unspecified) the Potency was inconclusive: 28.2 µM [inhibitor, single point]. For `O=C(CN1CCCc2ccccc21)N/N=C/c1ccc(O)cc1O`, the “outcome” value was “inactive”. For `CCC(C)CCCCC(=O)NC(CCN)C(=O)NC(C(=O)NC(CCN)C(=O)NC1CCNC(=O)C(C(C)O)NC(=O)C(CCN)NC(=O)C(CCN)NC(=O)C(CC(C)C)NC(=O)C(Cc2ccccc2)NC(=O)C(CCN)NC1=O)C(C)O` (stereo unspecified) ({Octanoyl(6-Me)}-[Dab]T[Dab][Dab][Dab]FL[Dab][Dab]T; lactam 4-C; configuration not given here), the Potency was active: 5.01 µM. With `O=C(c1ccccc1)c1ccc(OCCOCCN2CCN(Cc3ccccc3)CC2)cc1` the Potency was inconclusive: 35.5 µM [inhibitor, single point]. With `COC(=O)/C=C1\S/C(=N/N=C/c2ccc(Cl)cc2)NC1=O` the Potency was inconclusive: 1.41 µM [inhibitor, full curve, poor fit]. In the case of `COc1cc(/C=C2\SC(=S)N(NS(=O)(=O)c3ccccc3)C2=O)ccc1O`, the Potency is reported as active: 28.2 µM. `CCCCCCCCCCCCCCCC(=O)OCC(O)C1OC(=O)C(O)=C1O` (stereo unspecified) was tested, and the Potency was inconclusive: 25.1 µM [inhibitor, single point]. In the case of `CC/C(=N\Nc1ccccc1[N+](=O)[O-])c1ccc(O)cc1`, the Potency is reported as inconclusive: 17.8 µM [inhibitor, partial curve]. With `CCCCCn1c(CNC(=O)CCC)nc2ccccc21` the Potency was inconclusive: 22.4 µM [inhibitor, partial curve]. `O=c1oc(-c2ccco2)nc2ccccc12` was tested, and the “activity, negative = inhibition” value was inactive: -10.5%. In the case of `Cc1ccc(S(=O)(=O)N2CCCCC2)cc1NC(=O)Cn1ccc(C(F)(F)F)n1`, the Potency is reported as active: 39.8 µM. In the case of `COc1ccc(NC(=O)C2CCCN2S(=O)(=O)c2ccc3c(c2)CCC(=O)N3)cc1Cl` (stereo unspecified), the “outcome” value is reported as “inactive”. For `CCOC(=O)N1CCN(C(=O)CSc2nnc(-c3c[nH]c4ccccc34)n2CCOC)CC1`, the Potency was inconclusive: 39.8 µM [inhibitor, single point]. `Cc1ccc(Nc2nc(N)c([N+](=O)[O-])c(NCc3ccco3)n2)cc1C` was tested, and the Potency was active: 35.5 µM. `C=CCn1c(=O)c(C#N)cc2c(=O)n3ccccc3nc21` was tested, and the Potency was inconclusive: 39.8 µM [inhibitor, single point]. With `Cc1nc(-c2cccc(N)c2)cs1` the Potency was inconclusive: 3.55 µM [inhibitor, partial curve]. With `COCCOC(=O)c1c(C)oc2ccc(NS(=O)(=O)c3cccs3)cc12` the “activity, negative = inhibition” value was inactive: -29.3%. For `COc1c(O)ccc2c1CN1CCc3cc4c(cc3C1C2)OCO4` (stereo unspecified), the Potency was inconclusive: 35.5 µM [inhibitor, single point]. `CCCN(CCC)S(=O)(=O)c1ccc(C(=O)Nc2ccc(OCC(=O)N3CCOCC3)cc2)cc1` was tested, and the “activity, negative = inhibition” value was inactive: -4.1%. In the case of `CN(C)S(=O)(=O)c1cccc2c1C(=O)c1ccccc1C2=O`, the “activity, negative = inhibition” value is reported as inactive: 6.84%. `Cc1cc(C(C)(C)C)ccc1OCCCCN1CCCC1` was tested, and the Potency was inconclusive: 0.0251 µM [inhibitor, full curve, poor fit]. `CCn1c(=O)n(CC(=O)N2CC(C)CC(C)C2)c(=O)c2ccccc21` (stereo unspecified) was tested, and the Potency was inconclusive: 39.8 µM [inhibitor, single point]. In the case of `COc1ccc(OCC(=O)N2CCN(S(=O)(=O)c3ccccc3[N+](=O)[O-])CC2)cc1`, the “activity, negative = inhibition” value is reported as inactive: 19.1%. For `O=C(CSc1nnc(-c2ccccc2)o1)c1nnc(-c2ccccc2)o1`, the Potency was inconclusive: 39.8 µM [inhibitor, single point]. With `COc1ccc(S(=O)(=O)Nc2ccc(F)cc2)c(C)c1C` the Potency was inconclusive: 12.6 µM [inhibitor, partial curve]. `CN(C)c1ccc(NC2=C([N+](=O)[O-])CS(=O)(=O)C2)cc1` was tested, and the Potency was active: 20 µM. `COc1cccc(/C=N/NC(=O)C[n+]2ccccc2)c1O` was tested, and the Potency was inconclusive: 1.26 µM [inhibitor, full curve]. With `O=C1C=C(c2ccccc2)C(=O)N1Nc1ccccc1` the “outcome” value was “inactive”. `CN1c2cc3c(cc2N=C(c2ccc(C(=O)O)cc2)c2ccccc21)C(C)(C)CCC3(C)C` was tested, and the Potency was inconclusive: 28.2 µM [inhibitor, single point]. For `NC(=O)CC1SC(N)=NC1=O` (stereo unspecified), the Potency was inconclusive: 0.355 µM [inhibitor, partial curve, poor fit]. For `N=c1c(-c2nc3ccccc3[nH]2)cc(C(=O)c2ccco2)nn1-c1ccccc1`, the Potency was inconclusive: 0.891 µM [inhibitor, full curve, poor fit]. In the case of `CN(C)c1ccc(-c2nc(Nc3ccncc3)c3ccccc3n2)cc1`, the Potency is reported as inconclusive: 35.5 µM [inhibitor, single point]. For `CN(C)c1cccc(C(=O)OCC(=O)Nc2nccs2)c1`, the Potency was inconclusive: 14.1 µM [inhibitor, partial curve]. `CC1=C/C(=N\OS(=O)(=O)c2ccccc2)C=CC1=O` was tested, and the Potency was inconclusive: 39.8 µM [inhibitor, single point]. `O=C(Cc1cccs1)Nc1ccc(N2CCOCC2)cc1` was tested, and the “activity, negative = inhibition” value was inactive: -20.6%. In the case of `N#CCC(=O)Nc1ccc(C(=O)OCC(=O)c2ccc3c(c2)OCCO3)cc1`, the Potency is reported as inconclusive: 3.16 µM [inhibitor, partial curve]. In the case of `C#CCCCO/N=C1/C[C@@H](O)[C@@H](O)[C@@H]2[C@@H]3C(=O)N(CCC(=O)OCC)C(=O)[C@H]3CC[C@@H]12`, the activity, negative = inhibition is reported as inactive: 11% [at 11.5 µM].
